Experimental data taken from US9572802B2 (Theravance Respiratory Company, LLC, priority 2009, dated 2017).
Where a name gives a salt, the structure may show the parent alone. For at least one compound, name, drawing or mass did not settle the structure.

Tested on: methacholine (MCh)-induced bronchoconstriction
Experiment: Rat Einthoven assay: bronchoprotection against methacholine (MCh)-induced bronchoconstriction
Assay type: in vivo
Details: 100 μg by inhalation, bronchoprotective effect present
Protocol: This assay measures the ability of a test compound to provide bronchoprotection against methacholine (MCh)-induced bronchoconstriction in a rat. Male Sprague-Dawley rats (Harlan, Indianapolis, Ind.), weighing between 200 g and 350 g, were used for all studies. Test compound or vehicle (sterile deionized water) were dosed by inhalation (1H) over a 10 min period in a pie shaped inhalation chamber (R+S Molds, San Carlos, Calif.) using 5 mL of dosing solution. […] Rats were dosed with 100 μg of test compound unless otherwise indicated. At predetermined time points, rats were anesthetized with all intraperitoneal (IP) injection of 120 mg/kg inactin (thiobutabarbital). A supplemental dose (40 mg/kg, IP) was administered if the animal responded to physical stimuli (e.g. toe pinch). The surgical site was shaved and a 1-2 cm midline incision of the ventral aspect of the neck was made. The jugular vein was isolated and cannulated with a saline-filled polyethylene catheter (PE-50) to allow IV infusion of MCh. Trachea was dissected free and cannulated with a 14G needle (#NE-014, Small Parts, Miami Lakes, Fla.). After placement of the tracheal cannula, each rat was ventilated using a respirator (Model 683, Harvard Apparatus, Inc., Mass.) set at a stroke volume of 1 mL/100 g body weight (but not exceeding 2.5 mL volume) and a rate of 90 strokes per minute. A T-connector was placed along the respirator expiratory tubing to allow for measurement of changes in ventilation pressure (VP) using a Biopac transducer that was connected to a Biopac […]) pre-amplifier. Body temperature was maintained at 37° C. using a heating pad. Changes in VP were recorded using the Acknowledge Data Collection Software (Santa Barbara, Calif.). Baseline values were collected for at least 2.5 min. Rats were then challenged with non-cumulative intravenous (IV) infusions of 40 and 80 μg/kg MCh. MCh was infused intravenously for 2.5 minutes from a syringe pump (sp210iw, World Precision Instruments, Inc., Sarasota, Fla.) at a rate of 2 mL/kg/min, with a 2 minute interval between the two doses of MCh. Changes in ventilation pressure (cm H2O) in treated animals are expressed as % inhibition of MCh response relative to control animals. Other bronchoconstrictors, such as histamine and acetylcholine, can be used in place of MCh in this assay. Additonally, guinea pigs can be used instead of rats. […] Inhibition greater than or equal to 30 percent at 24 h is indicative of a long duration of action.

Row | Structure (SMILES) | Broncho. at 24 h
1 | CN(C(=O)CCN1CCC(OC(=O)Nc2ccccc2-c2ccccc2)CC1)c1cccc(C(=O)Nc2cccc(CCNC[C@H](O)c3ccc(O)c4[nH]c(=O)ccc34)c2)c1 [Compound I-32, Biphenyl-2-ylcarbamic acid 1-(2-{[3-(3-{2-[(R)-2-hydroxy-2-(8-hydroxy-2-oxo-1,2-dihydroquinolin-5-yl)-ethylamino]ethyl}phenylcarbamoyl)phenyl]methylcarbamoyl}ethyl)piperidin-4-yl ester ditrifluoroacetic acid salt] | No
2 | COc1cc(CNC[C@H](O)c2ccc(O)c3[nH]c(=O)ccc23)ccc1NC(=O)c1cccc(N(C)C(=O)CCN2CCC(OC(=O)Nc3ccccc3-c3ccccc3)CC2)c1 [Compound I-29, Biphenyl-2-ylcarbamic acid 1-(2-{[3-(4-{[(R)-2-hydroxy-2-(8-hydroxy-2-oxo-1,2-dihydroquinolin-5-yl)-ethylamino]methyl}-2-methoxyphenylcarbamoyl)phenyl]methylcarbamoyl}ethyl)piperidin-4-yl ester ditrifluoroacetic acid salt] | No
3 | Cc1ccc(C(=O)NCc2cccc(CC(C)NC[C@H](O)c3ccc(O)c4[nH]c(=O)ccc34)c2)cc1N(C)C(=O)CCN1CCC(OC(=O)Nc2ccccc2-c2ccccc2)CC1 (stereo partly drawn) [Compound I-45, Biphenyl-2-ylcarbamic acid 1-(2-{[5-(3-{2-[(R)-2-hydroxy-2-(8-hydroxy-2-oxo-1,2-dihydroquinolin-5-yl)-ethylamino]propyl}phenylcarbamoyl)-2-methylphenyl]methylcarbamoyl}ethyl)piperidin-4-yl ester ditrifluoroacetic acid salt] | No
4 | CC(Cc1ccc(CNC(=O)Cc2ccc(N(C)C(=O)CCN3CCC(OC(=O)Nc4ccccc4-c4ccccc4)CC3)cc2)cc1)NC[C@H](O)c1ccc(O)c2[nH]c(=O)ccc12 (stereo partly drawn) [Compound I-66, Biphenyl-2-ylcarbamic acid 1-[2-({4-[(4-{2-[(R)-2-hydroxy-2-(8-hydroxy-2-oxo-1,2-dihydroquinolin-5-yl)-ethylamino]propyl}benzylcarbamoyl)methyl]phenyl}methylcarbamoyl)ethyl]piperidin-4-yl ester ditrifluoroacetic acid salt] | No
5 | C[C@@H](Cc1cccc(NC(=O)c2cccc(N(C)C(=O)CCN3CCC(OC(=O)Nc4ccccc4-c4ccccc4)CC3)c2)c1)NC[C@H](O)c1ccc(O)c2[nH]c(=O)ccc12 [Compound I-39, Biphenyl-2-ylcarbamic acid 1-(2-{[3-(3-{(S)-2-[(R)-2-hydroxy-2-(8-hydroxy-2-oxo-1,2-dihydroquinolin-5-yl)-ethylamino]propyl}phenylcarbamoyl)phenyl]methylcarbamoyl}ethyl)piperidin-4-yl ester ditrifluoroacetic acid salt] | No
6 | Cc1cc(CNC[C@H](O)c2ccc(O)c3[nH]c(=O)ccc23)ccc1NC(=O)c1cccc(N(C)C(=O)CCN2CCC(OC(=O)Nc3ccccc3-c3ccccc3)CC2)c1 [Compound I-27, Biphenyl-2-ylcarbamic acid 1-(2-{[3-(4-{[(R)-2-hydroxy-2-(8-hydroxy-2-oxo-1,2-dihydroquinolin-5-yl)-ethylamino]methyl}-2-methylphenylcarbamoyl)phenyl]methylcarbamoyl}ethyl)piperidin-4-yl ester ditrifluoroacetic acid salt] | No
7 | Cc1ccc(C(=O)Nc2cccc(CC(C)NC[C@H](O)c3ccc(O)c4[nH]c(=O)ccc34)c2)cc1N(C)C(=O)CCN1CCC(OC(=O)Nc2ccccc2-c2ccccc2)CC1 (stereo partly drawn) [Compound I-37, Biphenyl-2-ylcarbamic acid 1-(2-{[5-(3-{2-[(R)-2-hydroxy-2-(8-hydroxy-2-oxo-1,2-dihydroquinolin-5-yl)-ethylamino]propyl}phenylcarbamoyl)-2-methylphenyl]methylcarbamoyl}ethyl)piperidin-4-yl ester ditrifluoroacetic acid salt] | No
8 | CC(Cc1ccc(CC(=O)Nc2cccc(N(C)C(=O)CCN3CCC(OC(=O)Nc4ccccc4-c4ccccc4)CC3)c2)cc1)NC[C@H](O)c1ccc(O)c2[nH]c(=O)ccc12 (stereo partly drawn) [Compound I-53, Biphenyl-2-ylcarbamic acid 1-[2-({3-[2-(4-{2-[(R)-2-hydroxy-2-(8-hydroxy-2-oxo-1,2-dihydroquinolin-5-yl)-ethylamino]propyl}phenyl)acetylamino]phenyl}methylcarbamoyl)ethyl)piperidin-4-yl ester ditrifluoroacetic acid salt] | No
9 | CC(Cc1ccc(CC(=O)NCc2ccc(N(C)C(=O)CCN3CCC(OC(=O)Nc4ccccc4-c4ccccc4)CC3)cc2)cc1)NC[C@H](O)c1ccc(O)c2[nH]c(=O)ccc12 (stereo partly drawn) [Compound I-80, Biphenyl-2-ylcarbamic acid 1-{2-[(4-{[2-(4-{2-[(R)-2-hydroxy-2-(8-hydroxy-2-oxo-1,2-dihydroquinolin-5-yl)-ethylamino]propyl}phenyl)acetylamino]methyl}phenyl)methylcarbamoyl]ethyl}piperidin-4-yl ester ditrifluoroacetic acid salt] | No
10 | CC(Cc1cccc(CNC(=O)c2cccc(N(C)C(=O)CCN3CCC(OC(=O)Nc4ccccc4-c4ccccc4)CC3)c2)c1)NC[C@H](O)c1ccc(O)c2[nH]c(=O)ccc12 (stereo partly drawn) [Compound I-44, Biphenyl-2-ylcarbamic acid 1-(2-{[3-(3-{2-[(R)-2-hydroxy-2-(8-hydroxy-2-oxo-1,2-dihydroquinolin-5-yl)-ethylamino]propyl}benzylcarbamoyl)phenyl]methylcarbamoyl}ethyl)piperidin-4-yl ester ditrifluoroacetic acid salt] | No
11 | CC(Cc1cccc(CC(=O)Nc2cccc(N(C)C(=O)CCN3CCC(OC(=O)Nc4ccccc4-c4ccccc4)CC3)c2)c1)NC[C@H](O)c1ccc(O)c2[nH]c(=O)ccc12 (stereo partly drawn) [Compound I-52, Biphenyl-2-ylcarbamic acid 1-[2-({3-[2-(3-{2-[(R)-2-hydroxy-2-(8-hydroxy-2-oxo-1,2-dihydroquinolin-5-yl)-ethylamino]propyl}phenyl)acetylamino]phenyl}methylcarbamoyl)ethyl]piperidin-4-yl ester ditrifluoroacetic acid salt] | No
12 | C[C@H](Cc1cccc(NC(=O)c2cccc(N(C)C(=O)CCN3CCC(OC(=O)Nc4ccccc4-c4ccccc4)CC3)c2)c1)NC[C@H](O)c1ccc(O)c2[nH]c(=O)ccc12 [Compound I-38, Biphenyl-2-ylcarbamic acid 1-(2-{[3-(3-{(R)-2-[(R)-2-hydroxy-2-(8-hydroxy-2-oxo-1,2-dihydroquinolin-5-yl)-ethylamino]propyl}phenylcarbamoyl)phenyl]methylcarbamoyl}ethyl)piperidin-4-yl ester ditrifluoroacetic acid salt] | No
13 | Cc1ccc(C(=O)Nc2cccc(CCNC[C@H](O)c3ccc(O)c4[nH]c(=O)ccc34)c2)cc1N(C)C(=O)CCN1CCC(OC(=O)Nc2ccccc2-c2ccccc2)CC1 [Compound I-33, Biphenyl-2-ylcarbamic acid 1-(2-{[5-(3-{2-[(R)-2-hydroxy-2-(8-hydroxy-2-oxo-1,2-dihydroquinolin-5-yl)-ethylamino]ethyl}phenylcarbamoyl)-2-methylphenyl]methylcarbamoyl}ethyl)piperidin-4-yl ester ditrifluoroacetic acid salt] | No
